Results deposited as PubChem BioAssay AID1259308 (NCATS, 2017)
The whole screen tested about 59,000 reagents; this is an unselected part. Over the whole deposit, about 1,510 (2.6%) are marked active. 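Calls use total luciferase alone and ignore viability, so some active siRNAs may act by altering cell number.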 Entries without a mark were called inactive. The numbers tell different reagents against one gene apart.

- Aim: 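Knock-downs that increase output of a recombinant reporter protein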 (primary screen)
- Cells: human HEK293 embryonic kidney cells stably expressing firefly luciferase (HEK-CMV-Luc2-Hygro)
- Reagent: single siRNA against human genes, 0.8 pmol siRNA per well
- Duration: 72 h
- Read-out: 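Luciferase light (ONE-Glo) measured on one replicate plate set and viability (CellTiter-Glo) on the other, scaled to a negative control siRNA, with robust z-scores and luciferase per cell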
- Reading the numbers: total luciferase, z-score and total luciferase, % of control: higher = more reporter protein produced; luciferase per cell, z-score: higher = more reporter output per viable cell; viable cells, % of control: higher = more viable cells
- Call rule: 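Active when the median/MAD z-score for overall luciferase is greater than 3; a gene was taken forward for validation with new siRNAs if at least two of its three siRNAs passed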
- Calls: active = raised luciferase; inactive = no rise

Gene | reagent no. | total luciferase, z-score | total luciferase, % of control | luciferase per cell, z-score | viable cells, % of control
PLA2G2D (GeneID 26279) | 1 | -0.843 | 65.1 | -0.174 | 76.2
PLA2G2D (GeneID 26279) | 2 | 1.41 | 110 | 0.906 | 96.8
PLA2G2D (GeneID 26279) | 3 | -0.764 | 66.7 | -0.748 | 90.7
TGM3 (GeneID 7053) | 1 | 1.45 | 111 | 0.328 | 113
TGM3 (GeneID 7053) | 2 | -0.43 | 73.3 | -0.729 | 99.3
TGM3 (GeneID 7053) | 3 | 1.15 | 105 | 0.712 | 97.1
PARM1 (GeneID 25849) | 1 | -0.29 | 76.1 | -0.162 | 88.8
PARM1 (GeneID 25849) | 2 | -1.85 | 45 | -2.25 | 90.9
PARM1 (GeneID 25849) | 3 | 2.81 | 138 | 2.8 | 73.6
CLEC9A (GeneID 283420) | 1 | -0.13 | 79.3 | 0.53 | 77.1
CLEC9A (GeneID 283420) | 2 | -0.215 | 77.6 | -0.34 | 94.9
CLEC9A (GeneID 283420) | 3 | -1.25 | 57.1 | -0.298 | 69
SUSD4 (GeneID 55061) | 1 | 1.52 | 112 | 1.13 | 93.1
SUSD4 (GeneID 55061) | 2 | -0.0885 | 80.1 | -0.798 | 110
SUSD4 (GeneID 55061) | 3 | 0.09 | 83.7 | -0.196 | 98.5
CCDC63 (GeneID 160762) | 1 | 1.17 | 105 | 0.947 | 91.6
CCDC63 (GeneID 160762) | 2 | -0.465 | 72.6 | -0.185 | 85.2
CCDC63 (GeneID 160762) | 3 | 0.341 | 88.7 | -0.0713 | 101
LHFPL5 (GeneID 222662) | 1 | 0.185 | 85.6 | 0.551 | 82.7
LHFPL5 (GeneID 222662) | 2 | 1.91 | 120 | 2.14 | 76.4
LHFPL5 (GeneID 222662) | 3 | 0.213 | 86.1 | 0.182 | 91.7
ANAPC11 (GeneID 51529) | 1 | -0.101 | 79.9 | 0.0654 | 87.7
ANAPC11 (GeneID 51529) | 2 | -1.88 | 44.4 | -1.57 | 75
ANAPC11 (GeneID 51529) | 3 | -0.245 | 77 | -0.483 | 97.7
UBL4A (GeneID 8266) | 1 | -0.000938 | 81.9 | 1.6 | 60
UBL4A (GeneID 8266) | 2 | 0.745 | 96.7 | 1.48 | 73.2
UBL4A (GeneID 8266) | 3 | 0.04 | 82.7 | 0.281 | 85.8
ATPSCKMT (GeneID 134145) | 1 | -1.54 | 51.3 | -1.51 | 85.4
ATPSCKMT (GeneID 134145) | 2 | -0.865 | 64.7 | -0.784 | 88.8
ATPSCKMT (GeneID 134145) | 3 | -1.68 | 48.6 | -1.39 | 78.3
ZBBX (GeneID 79740) | 1 | -1.52 | 51.8 | -1.39 | 83.4
ZBBX (GeneID 79740) | 2 | -0.193 | 78.1 | 0.716 | 72.2
ZBBX (GeneID 79740) | 3 | 0.0818 | 83.5 | 0.407 | 83.8
BPIFA1 (GeneID 51297) | 1 | -0.407 | 73.8 | 0.198 | 78.3
BPIFA1 (GeneID 51297) | 2 | -0.106 | 79.8 | 0.601 | 76.1
BPIFA1 (GeneID 51297) | 3 | 0.179 | 85.4 | 0.425 | 85.4
ICE1 (GeneID 23379) | 1 | 5.28 (active) | 187 | 4.22 | 68.8
ICE1 (GeneID 23379) | 2 | 2.02 | 122 | 1.73 | 86.5
ICE1 (GeneID 23379) | 3 | 1.53 | 112 | 0.523 | 109
NSD2 (GeneID 7468) | 1 | -0.286 | 76.2 | 0.0333 | 84.4
NSD2 (GeneID 7468) | 2 | 1.39 | 109 | 0.831 | 98.3
NSD2 (GeneID 7468) | 3 | -0.743 | 67.1 | 0.632 | 63.5
ITGB1BP2 (GeneID 26548) | 1 | -1.97 | 42.7 | -1.04 | 62.7
ITGB1BP2 (GeneID 26548) | 2 | -0.766 | 66.6 | -1.21 | 102
ITGB1BP2 (GeneID 26548) | 3 | 0.248 | 86.8 | 0.0781 | 95
CEP162 (GeneID 22832) | 1 | 1.08 | 103 | 0.347 | 105
CEP162 (GeneID 22832) | 2 | -0.611 | 69.7 | -0.992 | 101
CEP162 (GeneID 22832) | 3 | -0.064 | 80.6 | -0.196 | 94.9
ILKAP (GeneID 80895) | 1 | 0.495 | 91.7 | -0.281 | 110
ILKAP (GeneID 80895) | 2 | 1.2 | 106 | 2 | 69.9
ILKAP (GeneID 80895) | 3 | -1.06 | 60.8 | -1.13 | 91.6
ZGRF1 (GeneID 55345) | 1 | -0.426 | 73.4 | -1.06 | 108
ZGRF1 (GeneID 55345) | 2 | -0.406 | 73.8 | -0.543 | 95.2
ZGRF1 (GeneID 55345) | 3 | -3.28 | 16.6 | -3.72 | 49.5
ZGRF1 (GeneID 55345) | 4 | 0.417 | 90.2 | -0.153 | 105
ZGRF1 (GeneID 55345) | 5 | -0.104 | 79.8 | -0.53 | 103
ZGRF1 (GeneID 55345) | 6 | -1.32 | 55.7 | -1.4 | 90

An excerpt from above, limited to “viable cells, % of control”.
TGM3 (GeneID 7053) #3: 97.1
PARM1 (GeneID 25849) #1: 88.8
PARM1 (GeneID 25849) #2: 90.9
PARM1 (GeneID 25849) #3: 73.6
CLEC9A (GeneID 283420) #1: 77.1
CLEC9A (GeneID 283420) #2: 94.9
CLEC9A (GeneID 283420) #3: 69
SUSD4 (GeneID 55061) #1: 93.1
SUSD4 (GeneID 55061) #2: 110
SUSD4 (GeneID 55061) #3: 98.5
